PubChem BioAssay AID1259254 | NCATS, 2017

Purpose: 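Genome-wide screen for genes that prevent DNA re-replication in cancer cells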 (primary screen)
Cell system: human HCT116 colorectal cancer cells
Reagent: single siRNA against human genes
Duration: 3 days
Read-out: 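Nuclei stained with Hoechst and imaged; cell-cycle phase assigned by DNA content; G2 share scaled per plate, non-targeting siRNA 0%, GMNN siRNA 100%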
Direction: G2 robust z-score: higher = more G2 cells, more excess DNA replication
Rule for the call: 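Active siRNAs have a G2 robust z of 5 or more median absolute deviations over the median, which in these data means about 38% or higher of GMNN control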
Here is an unselected part of about 59,000 deposited reagents. In the full data, about 1,550 (2.6%) are marked active. 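G2 share is only a proxy for re-replication; each gene was hit by three separate siRNAs, and active genes were retested.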 Reagents against one gene are numbered here. Not all columns of the deposit are shown. Not given: the amount of reagent.

PTP4A3 (protein tyrosine phosphatase 4A3) #1 → G2 robust z-score = -0.0362; Outcome = inactive
PTP4A3 (protein tyrosine phosphatase 4A3) #2 → G2 robust z-score = -0.213; Outcome = inactive
PTP4A3 (protein tyrosine phosphatase 4A3) #3 → G2 robust z-score = 4.2; Outcome = inactive
NGRN (neugrin, neurite outgrowth associated) #1 → G2 robust z-score = -1.58; Outcome = inactive
NGRN (neugrin, neurite outgrowth associated) #2 → G2 robust z-score = 1.88; Outcome = inactive
NGRN (neugrin, neurite outgrowth associated) #3 → G2 robust z-score = -0.26; Outcome = inactive
ZNF439 (zinc finger protein 439) #1 → G2 robust z-score = -0.174; Outcome = inactive
ZNF439 (zinc finger protein 439) #2 → G2 robust z-score = 1.44; Outcome = inactive
ZNF439 (zinc finger protein 439) #3 → G2 robust z-score = -0.34; Outcome = inactive
SIDT2 (SID1 transmembrane family member 2) #1 → G2 robust z-score = 1.3; Outcome = inactive
SIDT2 (SID1 transmembrane family member 2) #2 → G2 robust z-score = -1.21; Outcome = inactive
SIDT2 (SID1 transmembrane family member 2) #3 → G2 robust z-score = 3.39; Outcome = inactive
LINC00471 (long independently transcribed non-coding RNA 471) #1 → G2 robust z-score = -0.385; Outcome = inactive
LINC00471 (long independently transcribed non-coding RNA 471) #2 → G2 robust z-score = -0.425; Outcome = inactive
LINC00471 (long independently transcribed non-coding RNA 471) #3 → G2 robust z-score = -0.16; Outcome = inactive
EBI3 (Epstein-Barr virus induced 3) #1 → G2 robust z-score = -0.542; Outcome = inactive
EBI3 (Epstein-Barr virus induced 3) #2 → G2 robust z-score = 0.507; Outcome = inactive
EBI3 (Epstein-Barr virus induced 3) #3 → G2 robust z-score = 1.45; Outcome = inactive
RGPD5 (RANBP2 like and GRIP domain containing 5) #1 → G2 robust z-score = 0.131; Outcome = inactive
RGPD5 (RANBP2 like and GRIP domain containing 5) #2 → G2 robust z-score = 1.03; Outcome = inactive
RGPD5 (RANBP2 like and GRIP domain containing 5) #3 → G2 robust z-score = 1.22; Outcome = inactive
YIF1A #1 → G2 robust z-score = 0.348; Outcome = inactive
YIF1A #2 → G2 robust z-score = 0.952; Outcome = inactive
YIF1A #3 → G2 robust z-score = 0.782; Outcome = inactive
